Results are given in words; binding and its absence hold for the method and conditions named. In cells and extracts the contact can be indirect. Some results given as binding are weak or reduced against the parent protein; the word gives no strength. Where a sequence is shown, tags or fusion partners need not be part of it.

Protein sequences, listed by entry. Tags and fused reporters are not part of them.
UniProt O46674: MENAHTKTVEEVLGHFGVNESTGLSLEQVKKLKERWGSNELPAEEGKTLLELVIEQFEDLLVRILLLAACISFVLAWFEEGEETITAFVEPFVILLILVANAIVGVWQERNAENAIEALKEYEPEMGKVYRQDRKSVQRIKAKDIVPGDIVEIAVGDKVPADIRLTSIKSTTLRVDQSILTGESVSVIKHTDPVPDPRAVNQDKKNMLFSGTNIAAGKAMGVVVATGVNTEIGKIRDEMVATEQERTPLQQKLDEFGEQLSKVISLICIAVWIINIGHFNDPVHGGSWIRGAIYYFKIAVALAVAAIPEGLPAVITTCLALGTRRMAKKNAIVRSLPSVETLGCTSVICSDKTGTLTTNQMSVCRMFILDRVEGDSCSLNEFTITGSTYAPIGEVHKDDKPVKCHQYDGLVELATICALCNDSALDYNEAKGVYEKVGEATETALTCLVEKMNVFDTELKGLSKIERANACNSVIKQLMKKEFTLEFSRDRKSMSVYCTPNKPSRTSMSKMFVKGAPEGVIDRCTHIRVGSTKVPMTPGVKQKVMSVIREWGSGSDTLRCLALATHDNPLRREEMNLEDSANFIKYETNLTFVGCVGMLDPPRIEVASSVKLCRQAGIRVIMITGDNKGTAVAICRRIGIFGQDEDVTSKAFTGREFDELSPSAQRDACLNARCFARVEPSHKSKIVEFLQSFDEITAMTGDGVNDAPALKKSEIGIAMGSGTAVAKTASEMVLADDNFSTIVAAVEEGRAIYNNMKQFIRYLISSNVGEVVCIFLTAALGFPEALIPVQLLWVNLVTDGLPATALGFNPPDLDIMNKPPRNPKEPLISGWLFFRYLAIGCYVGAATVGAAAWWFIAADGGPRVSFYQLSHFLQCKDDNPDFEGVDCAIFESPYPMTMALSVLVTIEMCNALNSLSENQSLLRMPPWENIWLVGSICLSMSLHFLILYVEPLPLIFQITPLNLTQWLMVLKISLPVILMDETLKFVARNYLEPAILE

This test has as its target Cer-SERCA2a (mCerulean fused to the N-terminus of canine SERCA2a) (canine) (UniProt O46674). The test is described as follows: FRET or BRET; intermolecular FRET in live AAV-293 cells, E-FRET (3-cube) method, widefield microscopy; donor Cer-SERCA, acceptor YFP-PLB; FRET against protein expression level. A general note: In BRET a luciferase serves as donor, and the signal depends on an acceptor being close.

B1: YFP-PLB (phospholamban with a YFP tag) (protein, UniProt P61012 1-52)
chain: MDKVQYLTRSAIRRASTIEMPQQARQNLQNLFINFCLILICLLLICIIVMLL
In the case of B1, the binding entry is “binds”.

Values taken from publication PMC3394785.
